# Measured values from patent publication US4766140A, “Method of inhibiting aromatase” (Eli Lilly and Company, priority 1984, dated 1988).
# Biological target: T1, aromatase (Rattus norvegicus, UniProt P22443)
# T1 construct: ovarian microsomes are obtained from rats treated with pregnant mares serum gonadotropin; from tissue; host or cells: ovarian microsomes from rats treated with pregnant mares serum gonadotropin
# T1 sequence (P22443 1-508): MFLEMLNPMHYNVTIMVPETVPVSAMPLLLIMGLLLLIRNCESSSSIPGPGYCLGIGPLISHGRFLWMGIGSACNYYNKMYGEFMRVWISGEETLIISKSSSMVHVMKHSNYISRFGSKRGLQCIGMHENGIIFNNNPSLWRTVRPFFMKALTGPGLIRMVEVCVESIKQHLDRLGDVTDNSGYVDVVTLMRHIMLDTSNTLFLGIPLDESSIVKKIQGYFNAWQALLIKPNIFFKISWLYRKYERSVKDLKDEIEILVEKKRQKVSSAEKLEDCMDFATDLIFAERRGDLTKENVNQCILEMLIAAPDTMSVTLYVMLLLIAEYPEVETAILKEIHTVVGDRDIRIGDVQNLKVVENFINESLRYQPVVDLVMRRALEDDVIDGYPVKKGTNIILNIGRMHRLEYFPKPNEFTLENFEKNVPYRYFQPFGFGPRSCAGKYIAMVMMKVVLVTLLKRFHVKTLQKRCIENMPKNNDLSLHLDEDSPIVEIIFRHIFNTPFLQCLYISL
# Test: Aromatase inhibition in the rat ovarian microsome assay
# Assay type: biochemical
structure (smiles),measurement,value
"Clc1ccc(COC(Cn2ccnc2)c2ccc(Cl)cc2Cl)c(Cl)c1 (stereo not drawn) [1-[2,4-dichloro-β-(2,4-dichloro-benzyloxy)phenylethyl]imidazole]",EC50,310 nM
